Among the data in patent publication US11065343B2 (IntoCell Inc., priority 2016, dated 2021) are step yield values, retold here.

A short description of this data set: general procedure: peptide synthesis; HOBt/pyridine/DIPEA (carbonate coupling to MMAF); CuSO4/sodium ascorbate (click). The conditions noted are these: late stage modification step.

For BGal-SIG-Toxin compound S-9, the step yield came out at 89%.
